PubChem BioAssay AID651768 (National Center for Advancing Translational Sciences (NCATS), 2012)
Hit rate of the full screen: of about 360,000 compounds, about 1,700 (0.47%) were called active. This list was built around the results that the source calls inconclusive (neither active nor inactive); the mix of calls is not that of the screen. Calls come from the whole dose curve; as a rule, active = well fitted inhibition curve with a large enough effect; inconclusive = small, poorly fitted or top-dose-only effect; inactive = no such curve, though single readings can be large or run the other way. Where the call is inconclusive, the potency comes from a doubtful curve fit.

Sequences of proteins named here, by UniProt entry; tags and fusion partners are left off.
UniProt Q14191, whole entry, looked up: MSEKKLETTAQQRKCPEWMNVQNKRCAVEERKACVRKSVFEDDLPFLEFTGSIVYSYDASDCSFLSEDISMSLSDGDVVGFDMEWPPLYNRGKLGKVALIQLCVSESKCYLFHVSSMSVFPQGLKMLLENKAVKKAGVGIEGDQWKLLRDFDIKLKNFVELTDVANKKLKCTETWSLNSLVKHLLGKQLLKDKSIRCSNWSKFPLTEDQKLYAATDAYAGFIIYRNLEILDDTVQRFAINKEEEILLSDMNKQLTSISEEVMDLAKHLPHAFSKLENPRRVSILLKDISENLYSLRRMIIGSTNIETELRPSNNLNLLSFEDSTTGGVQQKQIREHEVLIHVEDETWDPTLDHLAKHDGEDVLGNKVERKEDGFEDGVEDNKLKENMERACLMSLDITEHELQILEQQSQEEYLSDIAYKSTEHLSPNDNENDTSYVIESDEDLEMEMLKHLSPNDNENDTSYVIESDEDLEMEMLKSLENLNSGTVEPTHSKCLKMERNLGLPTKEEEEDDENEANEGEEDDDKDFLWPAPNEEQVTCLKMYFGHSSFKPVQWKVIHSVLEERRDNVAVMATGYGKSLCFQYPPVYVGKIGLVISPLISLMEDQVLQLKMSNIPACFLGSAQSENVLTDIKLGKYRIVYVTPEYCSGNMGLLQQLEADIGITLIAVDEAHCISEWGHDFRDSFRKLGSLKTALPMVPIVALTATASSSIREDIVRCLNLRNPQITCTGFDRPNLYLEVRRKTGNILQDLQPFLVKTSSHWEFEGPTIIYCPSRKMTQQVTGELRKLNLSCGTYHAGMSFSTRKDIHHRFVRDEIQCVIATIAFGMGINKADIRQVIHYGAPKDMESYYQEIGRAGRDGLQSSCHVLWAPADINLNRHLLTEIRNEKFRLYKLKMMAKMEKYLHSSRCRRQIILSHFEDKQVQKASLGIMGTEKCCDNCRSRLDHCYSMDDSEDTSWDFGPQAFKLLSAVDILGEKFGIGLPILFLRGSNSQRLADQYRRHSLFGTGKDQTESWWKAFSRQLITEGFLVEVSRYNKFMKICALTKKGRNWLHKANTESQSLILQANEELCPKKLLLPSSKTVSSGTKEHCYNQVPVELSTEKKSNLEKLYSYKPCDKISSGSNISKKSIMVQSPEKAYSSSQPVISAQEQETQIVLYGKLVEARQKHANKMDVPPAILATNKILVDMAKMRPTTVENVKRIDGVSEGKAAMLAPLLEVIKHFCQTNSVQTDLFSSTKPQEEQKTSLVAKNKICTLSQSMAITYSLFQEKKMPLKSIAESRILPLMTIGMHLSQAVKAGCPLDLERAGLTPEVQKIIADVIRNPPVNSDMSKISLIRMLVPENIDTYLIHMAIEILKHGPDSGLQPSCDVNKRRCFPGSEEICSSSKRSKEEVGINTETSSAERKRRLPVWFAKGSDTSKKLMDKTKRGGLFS

molecular target: Bifunctional 3'-5' exonuclease/ATP-dependent helicase WRN (Homo sapiens) (UniProt Q14191); assay: qHTS for Inhibitors of WRN Helicase; details: WRN helicase unwinding, fluorescent forked duplex, kinetic; activity change, negative = inhibition: at 114 µM (top of the series) unless noted; note: nearly all actives have a fitted effect of over 55% in size
Outline: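 Kinetic red-fluorescence monitoring (525/598 nm) tracks WRN helicase activity after 100 nM fluorophore-quencher forked duplex and 2 mM ATP are added to 20 nM enzyme pretreated 15 min at room temperature with compound.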
% is set by controls: 0 for no effect and ±100 for the full control effect; potency is the fitted concentration of half-maximal effect.

SMILES | Potency | activity change, negative = inhibition
Cn1c(SCC(=O)NCc2ccccc2)ncc(C(=O)Nc2ccccc2)c1=O | inconclusive: 56.2 µM [inhibitor, partial curve, poor fit] | –
CCc1nn(C(CC)C(=O)NCC(C)c2ccccc2)c(=O)c2cc3occc3n12 (centres undefined) | – | inactive: 1.85%
COC(=O)COc1ccc2c(c1)O/C(=C\c1ccco1)C2=O | inconclusive: 79.4 µM [inhibitor, partial curve] | –
Cc1ccc2c(COC(=O)C3=COCCO3)cc(=O)oc2c1 | inconclusive: 31.6 µM [inhibitor, full curve, poor fit] | –
Cc1cc(NC(=O)c2cc(-c3cccnc3)nc3c(C)c(C)ccc23)no1 | inconclusive: 89.1 µM [inhibitor, single point] | –
Cc1onc(-c2ccccc2)c1C(=O)Nc1sc2c(c1C(N)=O)CCC2 | – | inactive: -17.1%
N#Cc1c([N+](=O)[O-])cc([N+](=O)[O-])cc1S(=O)(=O)Cc1ccccc1 | active: 11.2 µM | –
CN(C)C(=O)CSc1nnc(-c2ccc(S(=O)(=O)N3CCCC3)cc2)n1C | – | inactive: -11.5%
CCc1ccc(NC(=O)C(C)Sc2nc(-c3ccco3)c(C#N)c(=O)[nH]2)cc1 (centres undefined) | inconclusive: 50.1 µM [inhibitor, partial curve] | –
O=C(/C=C/c1ccc([N+](=O)[O-])cc1)Oc1ccc(/C=N/NC(=O)c2ccncc2)cc1 | – | inactive: -13.1% [at 11.6 µM]
O=C1NC(=Nc2ccccc2)S/C1=C\C=C\c1ccco1 | active: 50.1 µM | –
C#CCOCCOCCOCCNc1nc(N2CCOCC2)nc(N2CCN(C(=O)Cn3cc(CCCN=C(N)N)nn3)CC2)n1 | – | inactive: 0.519%
COC(=O)C1=C(C)N(c2ccc(C)c(C)c2)/C(=C/c2ccco2)C1=O | inconclusive: 20 µM [inhibitor, single point] | –
O=C(CCSc1nnc2ccc3ccccc3n12)Nc1ccc(F)cc1 | – | inactive: -5.29%
COc1cc(-c2cnc3c(NC=O)cc(-c4cccc(NC(C)=O)c4)cn23)cc(OC)c1OC | active: 25.1 µM | –
O=C(O)COc1ccc(Br)cc1C(c1c(C(=O)O)[nH]c2ccccc12)c1c(C(=O)O)[nH]c2ccccc12 | – | inactive: -17.6%
O=C1C(=O)c2ccccc2C(O)=C1c1ccccc1F | inconclusive: 3.55 µM [inhibitor, full curve, poor fit] | –
O=C1[C@@H](Oc2ccccc2)[C@@H](c2ccncc2)N1c1ccncc1 | – | inactive: -1.07%
CCn1cc(C(=O)N2CCCC2)c(=O)c2cc(S(=O)(=O)N(C)C)ccc21 | – | inactive: -13.9%
O=C(O)c1ccc(-c2ccc(/C=c3/sc4nc5ccccc5n4c3=O)o2)cc1Cl | inconclusive: 2.67 µM [inhibitor, partial curve] | –
O=C1NN(c2ccccc2)C(=O)/C1=C/c1ccc(Sc2cccc3ccccc23)o1 | inconclusive: 56.2 µM [inhibitor, partial curve] | –
O=C1N/C(=C/c2ccc(N3CCOCC3)o2)C(=O)N1c1ccccc1 | inconclusive: 15.8 µM [inhibitor, full curve, poor fit] | –
O=c1ccc2c(-c3ccccc3)c3ccc(O)cc3oc-2c1 | active: 15.8 µM | –

SMILES | Potency | activity change, negative = inhibition
O=S(=O)(/N=S1/CC=CCN1S(=O)(=O)c1ccccc1)c1ccccc1 (centres undefined) | active: 44.7 µM | –
CSc1ccccc1NC(=O)c1cc(-c2ccco2)on1 | inconclusive: 100 µM [inhibitor, single point] | –
COc1ccc(CCNc2ncnc3c2[nH]c2cc(OC)c(OC)cc23)cc1OC | inconclusive: 50.1 µM [inhibitor, partial curve] | –
Nc1nnnn1/N=C/C(Br)=C/c1ccccc1 | inconclusive: 31.6 µM [inhibitor, full curve, poor fit] | –
CCOC(=O)C1=C(CSc2nc(-c3ccccc3)ccc2C#N)OC(N)=C(C#N)C1c1cccnc1 (centres undefined) | inconclusive: 56.2 µM [inhibitor, partial curve] | –
CC(OC(=O)/C(C#N)=C/c1ccc(N(C)C)cc1)C(=O)N(C)c1ccccc1 (centres undefined) | active: 56.2 µM | –
Cc1cc2nc(-c3ccc(SCc4ccccn4)nc3)[nH]c2cc1C | inconclusive: 79.4 µM [inhibitor, partial curve] | –
Cc1cccc(OCC(=O)NC(=S)NNC(=O)c2ccncc2)c1 | inconclusive: 11.2 µM [inhibitor, partial curve] | –
CCN1/C(=C/c2ccc3cc(C)ccc3[n+]2CC)Sc2ccccc21 | inconclusive: 56.2 µM [inhibitor, partial curve] | –
COC(=O)CSC1=C(C#N)C(=O)NC(c2ccccc2)S1 (centres undefined) | – | inactive: -1.46%
Cc1nn(C)cc1S(=O)(=O)NCc1ccccc1Cl | – | inactive: 1.72%
Cc1oc(C(=O)O)cc1CSCc1cc(C(=O)O)c(C)o1 | inconclusive: 50.1 µM [inhibitor, partial curve] | –
CCc1ccc(OCC2c3cc(OC)c(OC)cc3CCN2C(=S)NCCOC)cc1 (centres undefined) | inconclusive: 28.2 µM [inhibitor, single point] | –
N#CC1=C(N)NC(=S)C(C(N)=O)C1c1ccccc1F (centres undefined) | inconclusive: 56.2 µM [inhibitor, partial curve] | –
C=CCOC(=O)C1=C(C)NC(SCC(=O)Nc2nccs2)=C(C#N)C1c1cccs1 (centres undefined) | – | inactive: -0.847%
CCOc1ccc(CCNC(=O)c2nnn(CC(=O)Nc3ccc(OC)cc3)c2N)cc1OCC | – | inactive: -4.19%
Nc1ccc2ncccc2c1N | inconclusive: 56.2 µM [inhibitor, partial curve, poor fit] | –
CCOC(=O)c1c(NS(=O)(=O)c2ccc(Br)cc2)sc2c1CCC2 | inconclusive: 50.1 µM [inhibitor, partial curve] | –
O=C(CSc1nccc(=O)[nH]1)N1N=C2/C(=C/c3ccco3)CCCC2C1c1ccco1 (centres undefined) | inconclusive: 56.2 µM [inhibitor, partial curve] | –
CCn1cc(C(=O)O)c(=O)c2cnc(N3CCN(C(=S)Nc4ccccc4Cl)CC3)nc21 | – | inactive: -5.61%
COc1ccccc1OCc1nnc(SCC(=O)NCc2ccco2)n1Cc1ccco1 | inconclusive: 15 µM [inhibitor, partial curve] | –
NC(=O)N=Nc1c2[nH]c3ccccc3nc-2c2ccccc12 | – | inactive: -10.8% [at 11.6 µM]
Cc1cc(/C=N/n2c(COc3ccccc3)nc3ccccc3c2=O)c(O)c([N+](=O)[O-])c1 | inconclusive: 50.1 µM [inhibitor, partial curve] | –

Reprinted at random: 6 entries already listed.
SMILES | Potency | activity change, negative = inhibition
CCn1cc(C(=O)O)c(=O)c2cnc(N3CCN(C(=S)Nc4ccccc4Cl)CC3)nc21 | – | inactive: -5.61%
Cc1nn(C)cc1S(=O)(=O)NCc1ccccc1Cl | – | inactive: 1.72%
CN(C)C(=O)CSc1nnc(-c2ccc(S(=O)(=O)N3CCCC3)cc2)n1C | – | inactive: -11.5%
Cc1oc(C(=O)O)cc1CSCc1cc(C(=O)O)c(C)o1 | inconclusive: 50.1 µM [inhibitor, partial curve] | –
CC(OC(=O)/C(C#N)=C/c1ccc(N(C)C)cc1)C(=O)N(C)c1ccccc1 (centres undefined) | active: 56.2 µM | –
O=c1ccc2c(-c3ccccc3)c3ccc(O)cc3oc-2c1 | active: 15.8 µM | –

Remaining list, next part.

SMILES | Potency | activity change, negative = inhibition
CC(=O)N(C)c1ccc(NS(=O)(=O)c2cccc3nsnc23)cc1 | inconclusive: 8.91 µM [inhibitor, full curve, poor fit] | –
CCOc1ccccc1CN1CCC(n2nccc2NC(=O)C2CCCC2)CC1 | inconclusive: 89.1 µM [inhibitor, single point] | –
CCc1c(O)cc(=O)n(-c2ccccc2)c1-c1ccccc1 | inconclusive: 15.8 µM [inhibitor, partial curve] | –
CCN(CCNCC(O)COc1ccccc1C(C)C)c1cccc(C)c1 (centres undefined) | inconclusive: 20 µM [inhibitor, full curve, poor fit] | –
O=C(COc1coc(CN2CCc3ccccc3C2)cc1=O)Nc1cccc([N+](=O)[O-])c1 | inconclusive: 79.4 µM [inhibitor, single point] | –
COC(=O)/C(C#N)=C/c1c(N2CCN(Cc3ccc4c(c3)OCO4)CC2)nc2c(C)cccn2c1=O | inconclusive: 3.55 µM [inhibitor, full curve, poor fit] | –
Nc1cc(C(=O)O)ccc1N1CCCCC1 | inconclusive: 50.1 µM [inhibitor, partial curve] | –
CCOc1ccc(CCNC(=O)CS(=O)Cc2nc(-c3ccccc3C)oc2C)cc1OCC (centres undefined) | – | inactive: -1.97%
O=C(OCc1ccco1)c1ccc(S(=O)(=O)N2CCCCC2)cc1 | inconclusive: 50.1 µM [inhibitor, partial curve] | –
Cc1cccc(-c2nc3ccccc3c(=O)n2NC(=O)c2cccs2)c1 | inconclusive: 14.1 µM [inhibitor, single point] | –
COc1ccc(S(=O)(=O)N(C(=O)c2ccco2)c2cc3sc(=O)oc3c3ccccc23)cc1 | active: 44.7 µM | –
O=C(OCCC12CC3CC(CC(C3)C1)C2)c1ccc(NCc2cc(O)ccc2O)cc1 | inconclusive: 22.4 µM [inhibitor, full curve, poor fit] | –
Cc1ccccc1CSc1nnc(-c2ccco2)n1Cc1ccco1 | inconclusive: 29.9 µM [inhibitor, single point] | –
CC(C)(C)NC(=O)COC(=O)c1cc(F)c(F)cc1Cl | – | inactive: -1.84%
CCCCC1(C)NC(=S)N2N1C(=S)NC2(C)CCCC (centres undefined) | active: 56.2 µM | –
COc1ccc(Br)cc1CN1CCCC(C(=O)N2CCCCCC2)C1 (centres undefined) | inconclusive: 39.8 µM [inhibitor, full curve, poor fit] | –
O=C(Nc1cccc(O)c1)c1cnn2cccnc12 | – | inactive: -7.5%
COC(=O)C1=C(CSc2nc3c(cc2C#N)CN(C)CC3)OC(N)=C(C#N)C1c1ccccc1F (centres undefined) | inconclusive: 50.1 µM [inhibitor, partial curve] | –
Cc1cc(NC(=O)Cn2nnc(-c3ccccc3N)n2)no1 | inconclusive: 39.8 µM [inhibitor, single point] | –
O=C(O)c1cccc(-n2cccc2/C=C/[N+](=O)[O-])c1 | active: 20 µM | –
Cc1ccccc1NS(=O)(=O)c1ccc(NC(=O)N2CCCCC2)cc1 | inconclusive: 79.4 µM [inhibitor, single point] | –
O=C(O)c1cc(N/N=C/c2ccc(N3CCOCC3)s2)ccc1Cl | inconclusive: 35.5 µM [inhibitor, single point] | –
COc1cc(/C=C/c2nnc3c4ccccc4ncn23)cc(OC)c1OC | active: 56.2 µM | –
